Assay results reported in PubChem BioAssay.
Several values for one entry are separate records, joined by “and”; a condition that tells them apart may be missing. Identical values can stand only once. This is one part of the list. Shown are side measurements of this screen, not its main read-out; they come without a call. The list favours compounds with an active or inconclusive main result.

Assay: enhancers of SMN2 over SMN1 splicing, cell-based, SMN2/SMN1 luciferase reporters (AID 1598)
Conditions: SMN2 vs SMN1 luciferase splicing reporter cells, at 10 µM; SMN1 luciferase ratio: measured here: SMN1 luciferase reporter average; SMN2 luciferase ratio: measured here: SMN2 luciferase reporter average, stronger effect = higher value

| Structure (SMILES) | SMN1 luciferase ratio | SMN2 luciferase ratio |
| --- | --- | --- |
| CO[C@H]1[C@H](O)[C@@H](O[C@H]2CC[C@]3(C=O)C4CC[C@]5(C)[C@@H](C6=CC(=O)OC6)CC[C@]5(O)C4CC[C@@H]3C2)O[C@@H](C)[C@@H]1O (some centres not stated) | 0.04 | 0.07 |
| COc1ccc(C[C@H]2NC[C@H](O)[C@H]2OC(C)=O)cc1 | 0.06 | 0.09 |
| CC(=O)O[C@H]1C[C@H](O[C@H]2[C@@H](O)C[C@H](O[C@H]3[C@@H](O)C[C@H](O[C@H]4CC[C@@]5(C)C(CCC6C5C[C@@H](O)[C@]5(C)[C@@H](C7=CC(=O)OC7)CC[C@]65O)C4)O[C@@H]3C)O[C@@H]2C)O[C@H](C)[C@H]1O[C@@H]1O[C@H](CO)[C@@H](O)[C@H](O)[C@H]1O (some centres not stated) | 0.04 | 0.07 |
| NCC(O)c1ccc(O)cc1 (configuration not stated) | 0.95 | 0.94 |
| C[C@@H]([C@H](O)c1ccccc1)N(C)C | 0.92 | 0.87 |
| CCCC(C)(COC(N)=O)COC(=O)NC(C)C (configuration not stated) | 0.79 | 0.98 |
| Cc1cc2c(C(C)C)c(O)c(O)c(C=O)c2c(O)c1-c1c(C)cc2c(C(C)C)c(O)c(O)c(C=O)c2c1O | 0.85 | 0.88 |
| CCC1(CC)C(=O)C=CNC1=O | 0.88 and 1 | 1 and 0.96 |
| C[C@]12CCC3C(CC[C@]4(O)C[C@@H](O)CC[C@]34C=O)[C@@]1(O)CCC2C1=CC(=O)OC1 (some centres not stated) | 0.05 | 0.09 |
| C[N+](C)(C)CC(=O)[O-] | 0.98 | 0.84 |
| C/C=C(\C)C(=O)O[C@H]1C[C@@H](OC(C)=O)[C@@]2(C(=O)OC)CO[C@@H]3C2[C@]12CO[C@](O)(C(=O)OC)[C@H]2[C@](C)(C12O[C@@]1(C)[C@H]1C[C@@H]2OC2OC=C[C@@]21O)[C@@H]3O (some centres not stated) | 0.92 | 0.89 |
